The assay addresses NEDD4L (human (endogenous in HK-2)) (UniProt Q96PU5). The assay is described as follows: co-IP; NEDD4L antibodies used to isolate complexes from HK-2 cell lysate (IP lysis buffer: 50 mM Tris pH 7.4, 1 mM EDTA, 150 mM NaCl, 0.5% NP-40, protease inhibitors; 4 °C), Protein A/G PLUS-Agarose, SDS-PAGE and immunoblot with CaMKKβ antibodies. In general terms: In western blotting, separated proteins are transferred to a membrane and probed.

Protein sequences, listed by entry. Tags and fused reporters are not part of them.
UniProt Q96PU5: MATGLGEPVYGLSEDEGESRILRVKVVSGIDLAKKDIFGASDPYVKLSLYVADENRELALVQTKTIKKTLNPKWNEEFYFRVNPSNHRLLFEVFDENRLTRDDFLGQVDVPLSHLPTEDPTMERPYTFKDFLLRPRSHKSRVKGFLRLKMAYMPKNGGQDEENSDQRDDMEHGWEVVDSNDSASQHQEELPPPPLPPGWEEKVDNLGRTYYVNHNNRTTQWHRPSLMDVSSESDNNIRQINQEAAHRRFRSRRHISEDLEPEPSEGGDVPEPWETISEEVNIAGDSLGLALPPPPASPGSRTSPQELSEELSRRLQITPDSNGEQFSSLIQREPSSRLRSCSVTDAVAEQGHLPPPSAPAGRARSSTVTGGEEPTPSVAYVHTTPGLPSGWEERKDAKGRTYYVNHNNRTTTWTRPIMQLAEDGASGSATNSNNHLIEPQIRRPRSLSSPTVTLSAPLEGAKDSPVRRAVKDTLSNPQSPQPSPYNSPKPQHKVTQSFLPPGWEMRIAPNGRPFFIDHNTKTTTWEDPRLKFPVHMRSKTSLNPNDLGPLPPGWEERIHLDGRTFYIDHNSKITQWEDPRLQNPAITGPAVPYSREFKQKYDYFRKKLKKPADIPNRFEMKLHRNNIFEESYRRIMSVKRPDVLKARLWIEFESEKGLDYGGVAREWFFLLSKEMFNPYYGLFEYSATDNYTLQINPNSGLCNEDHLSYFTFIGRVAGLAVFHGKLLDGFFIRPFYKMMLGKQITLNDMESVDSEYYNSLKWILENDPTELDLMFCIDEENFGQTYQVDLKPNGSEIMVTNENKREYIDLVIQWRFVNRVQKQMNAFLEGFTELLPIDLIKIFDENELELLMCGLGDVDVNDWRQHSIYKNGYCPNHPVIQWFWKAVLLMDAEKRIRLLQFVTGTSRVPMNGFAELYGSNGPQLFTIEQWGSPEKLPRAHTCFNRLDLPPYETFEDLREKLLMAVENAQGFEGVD
UniProt Q96RR4: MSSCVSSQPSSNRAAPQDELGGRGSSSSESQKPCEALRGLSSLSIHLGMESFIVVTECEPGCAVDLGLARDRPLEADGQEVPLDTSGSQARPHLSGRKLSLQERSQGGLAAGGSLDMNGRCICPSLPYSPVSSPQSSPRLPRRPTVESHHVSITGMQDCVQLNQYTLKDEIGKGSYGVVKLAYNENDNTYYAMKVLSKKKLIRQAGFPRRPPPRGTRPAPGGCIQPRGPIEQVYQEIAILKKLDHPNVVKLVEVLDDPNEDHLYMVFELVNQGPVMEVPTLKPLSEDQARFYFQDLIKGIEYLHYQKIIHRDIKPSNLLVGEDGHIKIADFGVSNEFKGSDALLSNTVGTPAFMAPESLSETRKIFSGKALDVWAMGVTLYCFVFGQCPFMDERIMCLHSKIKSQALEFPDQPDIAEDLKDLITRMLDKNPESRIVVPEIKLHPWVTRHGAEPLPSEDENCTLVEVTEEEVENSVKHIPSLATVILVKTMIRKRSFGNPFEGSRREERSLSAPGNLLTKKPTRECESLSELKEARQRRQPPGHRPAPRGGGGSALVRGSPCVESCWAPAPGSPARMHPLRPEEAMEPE

No constants are given. Whether binding was seen depends on the method and setting. Binding seen in cells or lysates may run through a third protein. Some binding calls cover weakened binding; strength is not graded here.

The source of these data is PMC11100153.

“CaMKKβ (calmodulin-dependent protein kinase β) (from UniProt Q96RR4 1-588)”: the binding entry is listed as “binds”.
